Experimental data reported in patent US9018188B2, “MicroRNA inhibitors” (Ottawa Hospital Research Institute, priority 2011, dated 2015).
At least one structure is not confirmed: it was looked up by name or label, or the drawing left a doubt.

Tested on: miR-133
Assay: miR-133 biosensor luciferase assay in C2C12 myoblast clones
Assay type: cell-based
Conditions: C2C12 clone A10, 48 hours in growth media; TGF-β 10 ng/mL, Insulin 850 nM, IBMX 0.5 mM, AICAR 0.5 mM, Dexamethasone 1
Source text: The design of the miR-133 biosensor is based on the principle that recognition of microRNA target sites in 3′UTR by microRNA/RISC leads to the inhibition of the translation of the target mRNAs. An artificial 3′UTR containing optimized miR-133 target sites in tandem was designed and cloned downstream of the open reading frames of firefly luciferases and GFP, which in together function as miR-133 biosensor (FIG. 9A), in a lentiviral vector. C2C12 myoblast clones were infected with lentiviruses carrying the miR-133 biosensor and selected for stable expression of the reporter construct. Activity of potential modulators or miR-133 is tested and read as a reverse correlation between miR-133 functionality and luciferase/GFP intensities. The construct can be used for live-cell imaging (in vitro and in vivo) and allows real-time detection.
Two miR-133 biosensor plasmids were constructed—pCMV-FireflyLuc_miR133TS_EF1_Puro and pCMV-RenillaLuc—133TS_EF1_Puro. In the pCMV-FireflyLuc—133TS_EF1_Puro plasmid, five tandem miR-133 target sites (miR133TS; 5′-[…]-3′, SEQ ID NO:22) was cloned downstream of a firefly luciferase ORF (with a stop codon), which is driven by a CMV promoter. These miR-133 target sites in whole serve as an artificial 3′ UTR of firefly luciferase transcript. […]

C[C@@H]1C[C@H]2[C@@H]3CCC4=CC(=O)C=C[C@]4(C)[C@@]3(F)[C@@H](O)C[C@]2(C)[C@@]1(O)C(=O)CO [Dexamethasone]
effect on miR-133 by luciferase assays: enhancers of miR-133
